From article PMC3667761
No constants are given. Whether binding was seen depends on the method and setting. In cells and extracts the contact can be indirect. Some results given as binding are weak or reduced against the parent protein; the word gives no strength. For some assays here: Sequences can lack the tags named with a protein.

Assays:
Settings in all cases: remark: other sources report otherwise
[1] = biological target: human p21 (in CHO cells) (human), P38936; test: co-IP; CHO cells transfected with cyclin D3 (or cyclin D1-Flag), CDK4-HA and p21 or their mutants; IP with anti-cyclin D3 (DCS-28), anti-p21 or anti-Flag; SDS-PAGE or 2D gel and immunoblot; some immunoprecipitates incubated with ATP and recombinant kinases before the gel
[2] = biological target: 3×HA-p21 wt (human), P38936; test: co-IP; HCT116 K7AS cells with inducible 3×HA-p21 wt or T57D, serum-deprived 48 h, doxycycline 16 h; anti-HA immunoprecipitates incubated with ATP with or without recombinant cyclin A2-CDK2, then with or without CAK; 2D gel, anti-CDK4 and p21 antibodies
[3] = biological target: 3×HA-p21 wt (human), P38936; test: co-IP; HCT116 K7AS cells with Tet-On inducible 3×HA-p21 wt or mutants, doxycycline 16 h then FBS 16 h; IP with anti-HA; 2D gel, immunodetection with a mixture of anti-CDK4 and p21 antibodies
[4] = biological target: p21 (human (endogenous in HCT116)), P38936; test: co-IP; endogenous proteins from HCT116 lysates (wt, K7AS, p21-null); IP with anti-cyclin D1 (DCS-11), anti-cyclin D3 (DCS-28) or anti-p21 (C-19); SDS-PAGE or 2D gel and immunoblot; cells serum-deprived or stimulated with FBS, with or without 1-NMPP1, roscovitine, CR8, PD0332991 or MG132
[5] = biological target: p21 (human (endogenous in HCT116)), P38936; test: co-IP; HCT116 K7AS cells transfected with cyclin D3 and CDK4-HA, with or without 1-NMPP1 for 48 h; IP with anti-cyclin D3 or anti-p21; 2D gel, anti-CDK4 blot

B1: CDK4-HA (in CHO cells), P11802 1-303 (enzyme)
chain: MATSRYEPVAEIGVGAYGTVYKARDPHSGHFVALKSVRVPNGGGGGGGLPISTVREVALLRRLEAFEHPNVVRLMDVCATSRTDREIKVTLVFEHVDQDLRTYLDKAPPPGLPAETIKDLMRQFLRGLDFLHANCIVHRDLKPENILVTSGGTVKLADFGLARIYSYQMALTPVVVTLWYRAPEVLLQSTYATPVDMWSVGCIFAEMFRRKPLFCGNSEADQLGKIFDLIGLPPEDDWPRDVSLPRGAFPPRGPRPVQSVVPEMEESGAQLLLEMLTFNPHKRISAFRALQHSYLHKDEGNPE
- binding [1]: binds

B2: CDK4, P11802 1-303 (enzyme)
chain: B1 chain
- binding [2]: binds
- binding [3]: binds
- binding [4]: binds

B3: CDK4-HA (in HCT116 K7AS cells), P11802 1-303 (enzyme)
chain: B1 chain
- binding [5]: binds
